This experiment concerns the target T1, Protein tyrosine phosphatase 4A1 (PTP4A1), Flag-tagged (UniProt Q93096).
T1 sequence: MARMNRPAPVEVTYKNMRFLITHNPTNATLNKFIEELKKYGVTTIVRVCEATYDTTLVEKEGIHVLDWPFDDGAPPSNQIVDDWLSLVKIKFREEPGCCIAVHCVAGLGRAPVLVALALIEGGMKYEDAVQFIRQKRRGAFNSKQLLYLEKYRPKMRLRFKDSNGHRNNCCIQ
Briefly: co-IP; cells transfected with HA-tagged PKM2 or ACO2 and Flag-tagged PTP4A1; lysed in BC300 buffer with sonication; antibody overnight at 4 C, protein A/G agarose beads 3 h; anti-Flag or anti-HA antibodies; western blot. A general note: A western blot detects proteins with antibodies after separation by electrophoresis.

The chains behind the UniProt entries cited, without tags or fusion partners.
UniProt P14618: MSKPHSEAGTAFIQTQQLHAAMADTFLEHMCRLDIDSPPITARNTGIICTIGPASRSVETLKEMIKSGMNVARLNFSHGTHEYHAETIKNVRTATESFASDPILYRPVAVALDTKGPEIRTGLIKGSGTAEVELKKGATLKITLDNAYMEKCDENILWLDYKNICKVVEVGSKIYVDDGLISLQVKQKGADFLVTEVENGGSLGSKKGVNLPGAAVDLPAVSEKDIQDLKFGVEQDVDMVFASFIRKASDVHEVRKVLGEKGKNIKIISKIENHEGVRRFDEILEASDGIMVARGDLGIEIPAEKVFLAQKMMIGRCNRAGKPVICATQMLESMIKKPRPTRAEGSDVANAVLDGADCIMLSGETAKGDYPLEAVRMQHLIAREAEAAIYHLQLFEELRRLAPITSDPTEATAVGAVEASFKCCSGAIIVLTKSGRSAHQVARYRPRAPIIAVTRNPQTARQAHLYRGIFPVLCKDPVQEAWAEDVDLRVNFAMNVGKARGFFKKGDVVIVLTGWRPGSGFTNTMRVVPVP

These are yes or no findings as the source states them, for the method shown. Binding seen in cells or lysates may run through a third protein. Some binding calls cover weakened binding; strength is not graded here. Where a sequence is shown, tags or fusion partners need not be part of it.

As to “pyruvate kinase isoenzyme M2 (PKM2), HA-tagged (from UniProt P14618 1-531)”, the binding entry is reported as “binds”.

B1: aconitase 2 (ACO2), HA-tagged (enzyme, UniProt Q99798 28-780)
chain: QRAKVAMSHFEPNEYIHYDLLEKNINIVRKRLNRPLTLSEKIVYGHLDDPASQEIERGKSYLRLRPDRVAMQDATAQMAMLQFISSGLSKVAVPSTIHCDHLIEAQVGGEKDLRRAKDINQEVYNFLATAGAKYGVGFWKPGSGIIHQIILENYAYPGVLLIGTDSHTPNGGGLGGICIGVGGADAVDVMAGIPWELKCPKVIGVKLTGSLSGWSSPKDVILKVAGILTVKGGTGAIVEYHGPGVDSISCTGMATICNMGAEIGATTSVFPYNHRMKKYLSKTGREDIANLADEFKDHLVPDPGCHYDQLIEINLSELKPHINGPFTPDLAHPVAEVGKVAEKEGWPLDIRVGLIGSCTNSSYEDMGRSAAVAKQALAHGLKCKSQFTITPGSEQIRATIERDGYAQILRDLGGIVLANACGPCIGQWDRKDIKKGEKNTIVTSYNRNFTGRNDANPETHAFVTSPEIVTALAIAGTLKFNPETDYLTGTDGKKFRLEAPDADELPKGEFDPGQDTYQHPPKDSSGQHVDVSPTSQRLQLLEPFDKWDGKDLEDLQILIKVKGKCTTDHISAAGPWLKFRGHLDNISNNLLIGAINIENGKANSVRNAVTQEFGPVPDTARYYKKHGIRWVVIGDENYGEGSSREHAALEPRHLGGRAIITKSFARIHETNLKKQGLLPLTFADPADYNKIHPVDKLTIQGLKDFTPGKPLKCIIKHPNGTQETILLNHTFNETQIEWFRAGSALNRMKELQQ
Regarding B1, the binding entry is “binds”.

The record behind these values is article PMC10541904.
